From publication PMC12594171, “DKK3-LRP1 complex and a chemical inhibitor regulate Aβ clearance in models of Alzheimer’s disease” (Science Advances, 2025)

Target: T1, Flag-tagged DKK4 (UniProt Q9UBT3)
T1 sequence: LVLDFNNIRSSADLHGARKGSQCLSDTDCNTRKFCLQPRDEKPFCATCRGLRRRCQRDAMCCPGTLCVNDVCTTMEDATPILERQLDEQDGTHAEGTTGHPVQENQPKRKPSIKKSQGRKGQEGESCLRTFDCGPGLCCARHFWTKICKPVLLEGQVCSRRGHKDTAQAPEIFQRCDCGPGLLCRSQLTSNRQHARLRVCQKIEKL
Experiment: co-IP; extract of HEK293 DKK4+ cells, immunoblot for endogenous LRP1 (fig. S1D)

Substance: low-density lipoprotein receptor-related protein 1 (LRP1), endogenous in HEK293 (human (endogenous in HEK293))
- binding: binds

Results are given in words; binding and its absence hold for the method and conditions named. Binding seen in cells or lysates may run through a third protein. Binding calls can cover weak binding; strength is not graded here. Where a sequence is shown, tags or fusion partners need not be part of it.
